Measured values reported in article PMC8268110.
These are yes or no findings as the source states them, for the method shown. Binding seen in cells or lysates may run through a third protein. Here binding means that the protein was enriched with, or labelled near, the bait; the list need not be complete. For some of these results: A no says only that the protein was not detected with the bait.

T1: Nrl1(1–159aa)-TAP (S. pombe) (UniProt O42975)
T1 sequence: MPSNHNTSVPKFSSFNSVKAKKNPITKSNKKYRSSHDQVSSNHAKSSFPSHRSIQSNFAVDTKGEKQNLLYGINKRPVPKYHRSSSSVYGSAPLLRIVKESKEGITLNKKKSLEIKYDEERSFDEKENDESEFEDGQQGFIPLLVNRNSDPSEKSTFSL

T2: Nrl1(1–502aa)-TAP (S. pombe) (UniProt O42975)
T2 sequence: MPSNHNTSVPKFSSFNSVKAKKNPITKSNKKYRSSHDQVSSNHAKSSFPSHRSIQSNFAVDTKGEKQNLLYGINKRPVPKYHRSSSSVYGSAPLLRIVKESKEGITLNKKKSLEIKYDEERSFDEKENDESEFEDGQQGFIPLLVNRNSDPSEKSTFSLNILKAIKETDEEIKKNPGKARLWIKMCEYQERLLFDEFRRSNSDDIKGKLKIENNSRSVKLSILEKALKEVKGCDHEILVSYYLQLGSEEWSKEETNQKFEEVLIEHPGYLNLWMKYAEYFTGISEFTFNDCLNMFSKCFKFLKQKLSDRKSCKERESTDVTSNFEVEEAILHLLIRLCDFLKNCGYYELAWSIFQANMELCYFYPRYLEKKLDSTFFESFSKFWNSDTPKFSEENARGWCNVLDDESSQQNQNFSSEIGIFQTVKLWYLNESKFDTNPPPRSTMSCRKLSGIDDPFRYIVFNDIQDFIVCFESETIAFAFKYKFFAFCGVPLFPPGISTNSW

B1: ubiquitin-protein ligase E4 Prp19 (endogenous) (protein, UniProt O14011 1-488)
chain: MFCSISGETPKEPVISRVSGNVYEKRLIEQVIRETSKDPVTQQECTLEDLVPVKVPDFVRPRPPSATSLPALLSLFQEEWDSVALEQFELRRNLTETKQELSTALYSLDAALRVISRLTKERDEAREALAKFSDNIGTVSSKTIEVQEVEMGESDDQLKTSLRSTVEKTFQELSSKRKRTKLQPKWATDDAVSQLLQATPSTILENLETESTTSFFPSPENSSFVLCLHKDELLCLDIQSNSTLKIFEGSALACCWLTSSKIAVATADAISIFEFPVSSSGLQSVGEPTSSIPIDEKVNFLQAHPSGEYLLAASNEKCYIFSLKSQVYNITVAQHITSLAVHPDGNLFVAGLENGELRFFETSSGNELTKFGPHSSPVKTLQFGENGYWLVVTTNDDSDIFIWDLRKSELVQKIPLQTKVAAVSLDITSQLLVSSDGETLYVHIYVKSSKSWRCMSQTHVSSISNLVWLNELHQLLFSTSNGAILRLG
B2: Syf3 (endogenous) (protein, UniProt P87312 1-674)
chain: MTSEAPRVKNKNPAPIQISAEQLLREAVERQDVAFVPPKINITDLEELQEFQGRKRKEFEDAIRRNRLAMGHWMRYGQWELDQKEFARARSVFERALDVDSTYIPLWLKYIECEMKNRNINHARNLFDRAVTQLPRVDKLWYKYVYMEEMLGNITGCRQVFERWLKWEPDENCWMSYIRMERRYHENERARGIYERFVVVHPEVTNWLRWARFEEECGNAANVRQVYLAAIDALGQEFLNERFFIAFAKFEIRQKEYERARTIFKYAIDFMPRSKSMELYKEYTHFEKQFGDHLGVESTVLDKRRLQYEKLLKDSPYDYDTWLDLLKLEESAGDINTIRETYEKAIAKVPEVVEKNAWRRYVYIWLNYCLFEEIDVKDVDRARKVYQEALKLIPHKKFTFAKLWLMYAMFELRQRKIDVARKTLGRALGMCPKPKLFRGYIEFEDAIKQFDRCRILYEKWILYDPEACAPWLGYAALETKLGDSDRARALYNLAVNQPILETPELVWKAYIDFEFEEMEYGKARSIYQQLLRTAPHVKVWISFANFEIAHLEDDDEEPPNEEVASPTAVVRARNVFENALAHLRQQGLKEERVVLLEAWKQFEAMHGTEDTRKHVSSLMPQVVKKRRRLEDGSFEEYLDYLFPDTATDQGDKMRKMLELSRKWKEEMAKKKLEA
B3: Nhp2 (endogenous) (protein, UniProt Q9P7H0 1-154)
chain: MAKDKKDHKHSGSTEDEYDSYLPALMPIAKPLAPKKLNKKMMKTVKKASKQKHILRGVKEVVKAVRKGEKGLVILAGDISPMDVISHIPVLCEDNNVPYLYTVSKELLGEASNTKRPTSCVMIVPGGKKKDMSKVEEYKESYEEIIKEVPALEV
B4: Taf5 (endogenous) (protein, UniProt O13282 1-643)
chain: MSATNGPQPQDLNRIVLDYLAKKGYSRTEAMLRLEASGSGVSVEEKLKSIEETPDAYTHTYTILRDWVDSSLELYKAELHRILFPIFVHSYLNLLSQDHYEAAKQFYELFKDDHTDLHDFDVKNLKSLSLPSHVAEDRTAQQYRQNKYQLHFSRITFDLLLHFLFENVSNGGSIIIKLINQHIDIHIVPGRPTVLENAKVINEQEGITGQSFERGDAQLQPVKLQQMPMDKEMEKIVEMDLEEEDMMHQNDPNNQSPKLLKEFRKLHEPNAEDAPSRDYIPLPPHKGVDILSEVEAVKDWSKRLHLGPRASLPSVCMYTFHHTNNNMNCAEFSPDSTMIACGFQESYIRLWSIKADKKSLPKSTSVEDSDGSVRLLSHSGPVYGTTFSPDNKYLLSCSEDASARLWSVDTKTALVAYKGHTGPVWDVAFGPFGHYFATASHDQTAQLWSCDHIYPLRVFAGHLSDVDCVTFHPNSAYVLTGSSDKTCRLWDVHRGHSVRVFNGHTQPVTAVAIAPDGHTMASADSEGLIHLWDIGTGRRIKTMRGHRGNIYSLSFSRESTVLVSGGSDCTVRAWDVFKTNYNNPVSSSLTGSVVTPFSAKTSTFNEVNWSTSPDQMVALYTKQTPIFNVSFTRRNLCLAISVS
B5: Taf6 (endogenous) (protein, UniProt O74462 1-452)
chain: MSLTVWNIESIKDVAEMLGIGNLADEPAAAIAMDLEYRIHQVVQEATKFMVHSKRTVLTSADISSALRTLNVEPLYGFNNSRPLEFHEAAVGAGQNSLYYLDDEEVDFEKIINAPLPKVPRNISYSAHWLAIEGVQPAIPQNPTPSDHTVGEWASKGTSGVMPGASTAAKEARNGVTSMDNVEIKPLVRHVLSKELQLYFERITSALLDETNVELRDAALSSLRDDPGLHQLLPYFIMFLSDSVTRNLGNLVVLTTLMHMAWALLDNPNLFVEPYVQQLMPSILTCLVAKRLGSDPNNHEHYALRDLAAFLLGIVCDRFGNVYYTLKPRVTRTALKAFLDNTKPYSTHYGAIKGLKTMGKEAIRVLVVPNIKVYEVLVRKTLEKGNEEEIYEANKCMDALYDALLLLRDDQLPNQRTLPPNASGLLEKNVGSLMAEKIMKENDTSLLLGLLE
B6: Taf9 (endogenous) (protein, UniProt Q09869 1-163)
chain: MSSPGISDESIKGPKDVRLIHLILSSLGVPSYSQTVPLQLLTFAHRYTQQLIQDSQVYAEHSRGQNAPISVEDVRLAVASQINHSFTGPPPKEFLLELAMERNRKPLPQIQPSYGFRLPPEKYCLTQPNWIVSNETQQNQPKEENSSDSRMEEDKLDFSVKSE
B7: Taf12 (endogenous) (protein, UniProt O13722 1-450)
chain: MNGQHSSPGTPVQRPSAGPVNQAQFSQQRTNQLTSLLHTMTMYQQLAQNVGLNTPQGQVYLLQAQTIRRQLQGHAQSGQLPNQQLLQQLQSNGALQQGTPEPSNTRPRPQLNAQEQTMLLVRHRQLQTAQNYLTEMKEALGRIKNELSTNERLDTSAREALVKQESELTVKIAQFTAAISNGIRSIQQLQNRQASSANGNNTGTSTPVNASTDTRKSTASTPQLQQTQAQANAPQQRINPETSSVPETPVGVSAANVSNESTELATSATQQSGLANNVEKSQTPSYMSANHLPKVDSKSPIPFSVPPSRATLTGGYASGSIGLSTPGLSRAPHYELDNGNRLLSKRKLHDLLQQIDSEEKIEPEVEELLLEIADEFVESVTNFACRLAKHRKSDTLDVRDVQLHLERNWNIRLPGFASDDIVKSARKTGPTPSYQQKQNAIGTAKSLNKD

The molecules below were run against T1, Nrl1(1–159aa)-TAP (S. pombe) (assay: affinity purification with mass spectrometry; tandem affinity purification of TAP-tagged Nrl1 forms from S. pombe extracts (IgG Sepharose, TEV cleavage, Calmodulin Sepharose; IPP150 buffer: 50 mM Tris pH 8.0, 150 mM NaCl, 10% glycerol, 0.1% NP-40), eluates analysed by LC-MS/MS; proteins of the mock purification excluded).

Row | Molecule | binding
1 | Ctr1 (endogenous) (S. pombe (endogenous in S. pombe)) | no binding
2 | ATP-dependent RNA helicase Mtl1 (endogenous) (S. pombe (endogenous in S. pombe)) | binds
3 | Ntr2 (endogenous) (S. pombe (endogenous in S. pombe)) | no binding
4 | B1 | no binding
5 | B2 | no binding

These molecules were tested against T2, Nrl1(1–502aa)-TAP (S. pombe) in the same assay as above.

Row | Molecule | binding
6 | Utp14 (endogenous) (S. pombe (endogenous in S. pombe)) | binds weakly
7 | ATP-dependent RNA helicase Mtl1 (endogenous) (S. pombe (endogenous in S. pombe)) | binds
8 | B1 | binds
9 | B3 | binds weakly
10 | B4 | binds weakly
11 | B5 | binds weakly
12 | B6 | binds weakly
13 | B7 | binds weakly
